# Reference: PubChem BioAssay AID1671190 (National Center for Advancing Translational Sciences (NCATS), 2021)
# Chains of the proteins cited; added tags and fusions are not shown. Lines headed by an entry give the natural chain unless they say otherwise; changes in a name come on top.
# UniProt P18054: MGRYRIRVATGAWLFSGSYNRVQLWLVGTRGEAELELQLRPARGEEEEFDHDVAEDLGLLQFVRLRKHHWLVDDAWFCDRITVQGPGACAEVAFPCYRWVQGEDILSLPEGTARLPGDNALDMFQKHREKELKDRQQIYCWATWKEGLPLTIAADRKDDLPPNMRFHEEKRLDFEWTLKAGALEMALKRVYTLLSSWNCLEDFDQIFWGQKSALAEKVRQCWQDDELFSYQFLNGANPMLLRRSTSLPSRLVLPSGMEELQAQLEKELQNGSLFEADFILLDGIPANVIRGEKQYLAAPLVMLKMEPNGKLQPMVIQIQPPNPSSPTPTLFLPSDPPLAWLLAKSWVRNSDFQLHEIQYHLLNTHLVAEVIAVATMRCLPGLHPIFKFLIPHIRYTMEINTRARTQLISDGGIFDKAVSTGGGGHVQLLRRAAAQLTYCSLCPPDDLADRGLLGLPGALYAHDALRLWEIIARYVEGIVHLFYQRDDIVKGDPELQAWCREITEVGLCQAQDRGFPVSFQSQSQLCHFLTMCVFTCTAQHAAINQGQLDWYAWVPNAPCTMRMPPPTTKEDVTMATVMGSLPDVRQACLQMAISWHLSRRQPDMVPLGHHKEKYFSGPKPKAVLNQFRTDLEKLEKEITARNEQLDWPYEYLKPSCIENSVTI
# Hit rate of the full screen: of about 580,000 compounds, about 6,100 (1.1%) were called active. This list was built around the results that the source calls inconclusive (neither active nor inactive); the mix of calls is not that of the screen. Calls come from the whole dose curve; as a rule, active = well fitted inhibition curve with a large enough effect; inconclusive = small, poorly fitted or top-dose-only effect, or another doubt; inactive = no such curve, though single readings can be large or run the other way. A potency beside an inconclusive call is a rough fit, not a confirmed value.
# Molecular target: Polyunsaturated fatty acid lipoxygenase ALOX12 (Homo sapiens) (UniProt P18054)
# Assay: Primary qHTS assay for inhibitors of human arachidonate 12S-lipoxygenase (ALOX12): Round 2
# Settings: purified 12hLO, xylenol orange hydroperoxide absorbance; activity change, negative = inhibition: at 108 µM (top of the series) unless noted
# Summary of the method: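 Hydroperoxide product was detected by ferrous iron/xylenol orange as the 573 to 405 nm absorbance ratio. Arachidonic acid at 40 uM (final) was turned over for 30 min at room temperature by 150 nM human 12hLO, pH 7.0 Hepes buffer, after 15 min compound preincubation.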
# % is set by controls: 0 for no effect and ±100 for the full control effect; potency is the fitted concentration of half-maximal effect.
Compound,Potency,"activity change, negative = inhibition"
CCOC(=O)CN1C(=O)C(O)=C(C(C)=O)C1c1ccc([N+](=O)[O-])cc1 (stereo not given),"inconclusive: 31.6 µM [inhibitor, partial curve, poor fit]",
Cc1ccc(S(=O)(=O)NC2=NCN(CC(=O)O)CN2)cc1,"inconclusive: 4.47 µM [inhibitor, full curve, poor fit]",
COc1ccc(C(=O)Oc2ccc(C)cc2)cc1,"inconclusive: 0.794 µM [inhibitor, full curve, poor fit]",
COc1ccccc1NC(=O)CSc1nnnn1-c1ccccc1OC,inactive,
CCN1CCN(C(CNS(=O)(=O)c2ccc(Cl)cc2)c2ccccc2)CC1 (stereo not given),"inconclusive: 2.51 µM [inhibitor, full curve, poor fit]",
Cc1ccc(CCNC(=O)c2cc(C)nc3c(C)cc(C)cc23)cc1,inactive,
CCS(=O)(=O)N1CCC(C(=O)NCCCOC)CC1,inactive,
CC(=O)N/N=C(\C)CC(=O)Nc1cccc2c1CCCC2,"inconclusive: 89.1 µM [inhibitor, partial curve, poor fit]",
COc1ccc(/C=N/NC(=O)CN2CCCc3ccccc32)c(OC)c1,inactive,
CC1=C(C(=O)OC2CCCC2)C(c2ccc(C)o2)C2=C(CC(c3cccs3)CC2=O)N1 (stereo not given),"inconclusive: 35.5 µM [inhibitor, partial curve]",
O=C(Nc1ccncc1)Nc1ccc(Cl)cc1,"inconclusive: 4.47 µM [inhibitor, full curve, poor fit]",
O=C(c1ccc(Cl)cc1Cl)N(CCS(=O)(=O)N1CCCC1)Cc1ccncc1,"inconclusive: 0.398 µM [inhibitor, full curve]",
NCc1ccc(CN2CCCCC2)cc1,"inconclusive: 89.1 µM [inhibitor, single point]",
COC(=O)c1ccc(NC(=S)Nc2ccccn2)cc1,"inconclusive: 8.91 µM [inhibitor, partial curve, poor fit]",
CC(C)N(Cc1ccccc1)C(=O)COc1ccccc1,inactive,
Cc1c(Cl)cnc(NC(=O)COC(=O)c2cccs2)c1Cl,"inconclusive: 100 µM [inhibitor, single point]",
Cc1cc(C)cc(-n2nnnc2SCC(=O)Nc2cccc(NC(=O)c3ccco3)c2)c1,inactive,
COCOCCn1cc(CN2CCS(=O)(=O)N(Cc3ccc(-c4ccc(Cl)c(Cl)c4)cc3)C(C)C2=O)nn1 (stereo not given),"inconclusive: 50.1 µM [inhibitor, partial curve, poor fit]",
CCn1c(SCC(=O)N/N=C/C=C/c2ccco2)nnc1-c1ccc(OC)cc1,"inconclusive: 3.98 µM [inhibitor, full curve, poor fit]",
COc1cc(NC(=O)CN2CCN(c3ccccn3)CC2)cc(OC)c1OC,inactive,
CCOC(=O)c1ccc(CN2C(=O)c3ccccc3S2(=O)=O)cc1,"inconclusive: 17.8 µM [inhibitor, single point]",
Cc1nonc1CN1CCN(C(C(=O)O)c2c[nH]c3ccc(Cl)cc23)CC1 (stereo not given),inactive,
Cc1nc(C)c(C(=O)N2CCCC(Cc3noc(-c4cnccn4)n3)C2)s1 (stereo not given),inactive,
COc1ccccc1-c1cc(C(=O)N2CCN(c3ccccc3)CC2)no1,,inconclusive: -30.5% [inhibitor]

Compound,Potency,"activity change, negative = inhibition"
O=c1[nH]c(-c2ccc(Cl)cc2)nc(=S)[nH]1,"inconclusive: 35.5 µM [inhibitor, partial curve, poor fit]",
O=C(Nc1nc(-c2ccc(Br)s2)cs1)C1CC1,"inconclusive: 44.7 µM [inhibitor, partial curve, poor fit]",
CCNC(=S)Nc1ccc(C)cc1Br,inactive,
COc1ccc(-c2nc3c(-c4ccccc4)cnn3cc2C)cc1F,inactive,
CCNC(=O)N[C@@H]1C=C[C@@H](c2c(C)nn(-c3ccc(C(C)(C)C)cc3)c2C)C1,"inconclusive: 63.1 µM [inhibitor, full curve]",
O=C(C(Sc1n[nH]c(-c2ccccc2)n1)c1ccccc1)N1CCOCC1 (stereo not given),inactive,
COCC(=O)N[C@H]1C[C@@H](CO)N(Cc2cc(F)c(F)c(F)c2)C1,inactive,
N#CC1=C(N)Oc2n[nH]c(-c3ccccc3)c2C12C(=O)N(Cc1cccc(F)c1)c1ccccc12 (stereo not given),"inconclusive: 44.7 µM [inhibitor, partial curve, poor fit]",
COc1ccccc1-c1coc2cc(OC(=O)c3ccccc3C)ccc2c1=O,inactive,
NC(=O)C(Sc1cc(Cl)ccc1Cl)c1ccccc1 (stereo not given),"inconclusive: 89.1 µM [inhibitor, partial curve, poor fit]",
COc1ccc(Nc2cc3c(cn2)cc(-c2cccc(F)c2)n3C)cn1,"inconclusive: 56.2 µM [inhibitor, partial curve, poor fit]",
COc1ccccc1OC(C)C(=O)NC1CCCC1 (stereo not given),inactive,
CCCc1ccc(S(=O)(=O)N2CCN(C(C)C(=O)NC3CCCC3)CC2)cc1 (stereo not given),inactive,
C=CCSc1nnc(Cc2c(C)[nH]c3ccccc23)o1,"inconclusive: 0.251 µM [inhibitor, full curve, poor fit]",
Cc1nc(CSc2ccc3c(c2)OCCCO3)oc1C,"inconclusive: 63.1 µM [inhibitor, partial curve, poor fit]",
Cn1nc(C(F)(F)F)c(-c2ccc(Br)cc2)c1NC(=O)C1CCC1C(=O)O (stereo not given),"inconclusive: 126 µM [inhibitor, single point]",
CONC(=O)c1ccccc1Cc1ccccc1,inactive,
CCOc1cc(C(=O)O)ccc1OCCOc1ccccc1,"inconclusive: 89.1 µM [inhibitor, partial curve, poor fit]",
CC(C)NC1=C(Cl)C(=O)c2ccccc2C1=O,"inconclusive: 39.8 µM [inhibitor, full curve, poor fit]",
COc1cccc(NC(=O)CN(C)S(=O)(=O)c2ccc(C)cc2)c1,"inconclusive: 50.1 µM [inhibitor, partial curve, poor fit]",
COc1cc2nc(CSCC(=O)N3CCC(=O)CC3)[nH]c(=O)c2cc1OC,inactive,
CCOP(=O)(OCC)c1nc(-c2ccc(Cl)cc2)oc1NCc1cccnc1,"inconclusive: 35.5 µM [inhibitor, partial curve, poor fit]",
Cc1cc(C)nc(SCc2cc(=O)c(OC(=O)c3cc([N+](=O)[O-])ccc3Cl)co2)n1,"inconclusive: 35.5 µM [inhibitor, partial curve, poor fit]",
COc1cccc(/C=C2\Oc3cc(OCC(=O)N4CCC[C@H]4C(=O)O)ccc3C2=O)c1,"inconclusive: 44.7 µM [inhibitor, partial curve, poor fit]",

Compound,Potency,"activity change, negative = inhibition"
CC(NC(=O)c1cc(-c2ccc(Br)cc2)n[nH]1)c1ccc(F)cc1 (stereo not given),"inconclusive: 3.16 µM [inhibitor, full curve, poor fit]",
Cc1ccc(NC(=O)C2CC2)cc1NC(=O)C1(C)CC1(Cl)Cl (stereo not given),"inconclusive: 70.8 µM [inhibitor, partial curve, poor fit]",
CCCCNc1ccc(C(=O)OCCN(CC)CC)cc1,"inconclusive: 18.1 µM [inhibitor, single point]",
Cc1nn(-c2ncccn2)c2c1C(c1ccc(OCC(N)=O)cc1)CC(=O)N2 (stereo not given),"inconclusive: 44.7 µM [inhibitor, partial curve, poor fit]",
COC(=O)C12OCC34C(CC5C(C)=C(O)C(=O)CC5(C)C3C(O)C1O)OC(=O)C(OC(=O)C=C(C)C)C24 (stereo not given),inactive,
CCNC(=O)N1CCCN(S(C)(=O)=O)C(c2ccccc2)CC(=O)NCC1 (stereo not given),inactive,
NC(Cc1ccc(C(F)(F)F)cc1)c1csc(NC(=O)Nc2ccccc2Oc2ccccc2)n1 (stereo not given),"inconclusive: 100 µM [inhibitor, single point]",
CCN(CC)CCCN=Cc1c(O)n(-c2ccc(C)cc2)c(=O)c2ccccc12,"inconclusive: 89.1 µM [inhibitor, partial curve, poor fit]",
Cc1cc(-c2ccc(S(=O)(=O)Nc3cccc(C)c3C)s2)on1,inactive,
O=C(NCC1CCCO1)c1cc2c([nH]c3ccccc32)c(-c2cccc(Br)c2)n1 (stereo not given),inactive,
Cc1ccc(C)c(OCC(=O)Nc2ccc(S(=O)(=O)Nc3nccs3)cc2)c1C,inactive,
O=C(NNC(=O)C1CC=CCC1)c1ccc(F)cc1 (stereo not given),inactive,
O=C1C2C3C=CC(CC3)C2C(=O)N1/N=C/c1c(O)ccc2ccccc12 (stereo not given),inactive,
Cc1ccc(-c2cc(=O)c3cc(NC(=O)c4ccccc4F)ccc3o2)cc1,inactive,
NC(=O)Cn1ccc2cc(OCC3CCN(C(=O)C4CCCC4)CC3)cnc21,"inconclusive: 126 µM [inhibitor, partial curve, poor fit]",
CCCCc1c(-c2cccc(Cl)c2)ncn1CCc1ccccc1OC,"inconclusive: 20 µM [inhibitor, partial curve, poor fit]",
CCCCn1nc(C(=O)Nc2cccc(S(=O)(=O)NC3=NCCC3)c2)c2ccccc2c1=O,inactive,
O=C(CSc1nnc(-c2ccccc2Br)n1-c1ccccc1)c1ccc(F)cc1,inactive,
Clc1ccc(N2COC3c4cccc5cccc(c45)C32)cc1 (stereo not given),,inconclusive: -35.2% [inhibitor]
CC(NC(=O)c1ccc(Cl)cc1)C(=O)NC1=NCCS1 (stereo not given),"inconclusive: 28.2 µM [inhibitor, partial curve, poor fit]",
O=c1c2ccccc2sn1-c1cc(S(=O)(=O)N2CCOCC2)ccc1N1CCCC1,"inconclusive: 0.398 µM [inhibitor, full curve, poor fit]",
Cc1ccc(S(=O)(=O)NCc2ccccn2)c(C)c1C,"inconclusive: 20 µM [inhibitor, partial curve, poor fit]",

# 5 of these compounds, set out differently.
Compound	Potency	activity change, negative = inhibition
CC(=O)N/N=C(\C)CC(=O)Nc1cccc2c1CCCC2	inconclusive: 89.1 µM [inhibitor, partial curve, poor fit]	
COc1ccc(/C=N/NC(=O)CN2CCCc3ccccc32)c(OC)c1	inactive	
COCOCCn1cc(CN2CCS(=O)(=O)N(Cc3ccc(-c4ccc(Cl)c(Cl)c4)cc3)C(C)C2=O)nn1 (stereo not given)	inconclusive: 50.1 µM [inhibitor, partial curve, poor fit]	
CCN(CC)CCCN=Cc1c(O)n(-c2ccc(C)cc2)c(=O)c2ccccc12	inconclusive: 89.1 µM [inhibitor, partial curve, poor fit]	
NC(=O)Cn1ccc2cc(OCC3CCN(C(=O)C4CCCC4)CC3)cnc21	inconclusive: 126 µM [inhibitor, partial curve, poor fit]	
